Measurements: US20170082633A1
No constants are given. Whether binding was seen depends on the method and setting. Some entries that bind do so weakly or less than the wild type. Where a sequence is shown, tags or fusion partners need not be part of it.

Sequences of proteins named here, by UniProt entry; tags and fusion partners are left off. Residues count along the entry.
UniProt Q9HB90, residues 2-399: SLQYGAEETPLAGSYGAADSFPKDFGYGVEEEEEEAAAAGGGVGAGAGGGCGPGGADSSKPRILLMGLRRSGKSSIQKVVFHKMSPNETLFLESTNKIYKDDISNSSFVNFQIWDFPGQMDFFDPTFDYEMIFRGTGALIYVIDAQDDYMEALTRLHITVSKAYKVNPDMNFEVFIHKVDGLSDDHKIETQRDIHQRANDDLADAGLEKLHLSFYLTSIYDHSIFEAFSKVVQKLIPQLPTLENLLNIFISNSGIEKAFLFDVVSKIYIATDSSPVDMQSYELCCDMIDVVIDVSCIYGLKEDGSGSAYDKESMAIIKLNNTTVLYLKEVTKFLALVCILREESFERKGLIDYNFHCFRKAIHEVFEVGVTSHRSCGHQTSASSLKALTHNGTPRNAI
UniProt Q7L523: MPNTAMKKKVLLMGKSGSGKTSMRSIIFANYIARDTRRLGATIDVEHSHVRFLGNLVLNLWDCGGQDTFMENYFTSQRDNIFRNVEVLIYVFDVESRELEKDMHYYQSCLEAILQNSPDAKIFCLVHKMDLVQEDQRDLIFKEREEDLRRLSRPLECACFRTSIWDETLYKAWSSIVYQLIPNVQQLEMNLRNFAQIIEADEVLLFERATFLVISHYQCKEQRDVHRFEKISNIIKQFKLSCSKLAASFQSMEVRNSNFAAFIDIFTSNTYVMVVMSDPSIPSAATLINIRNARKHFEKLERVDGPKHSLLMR

How the values were obtained:
Assay in all cases: FLAG IP from transfected HEK-293T cells, immunoblot
[1] = biological target: endogenous p18 (UniProt Q6IAA8)
[2] = biological target: endogenous p14 (UniProt Q9Y2Q5)
[3] = biological target: endogenous RagC (UniProt Q9HB90)
[4] = biological target: endogenous RagA (UniProt Q7L523)

Measured: binding

B1: FLAG-SLC38A9.1 H60A (protein)
single chain: MANMNSDSRHLGTSEVDHERDPGPMNIQFEPSDLRSKRPFCIEPTNIVNVNHVIQRVSDAASAMNKRIHYYSRLTTPADKALIAPDHVVPAPEECYVYSPLGSAYKLQSYTEGYGKNTSLVTIFMIWNTMMGTSILSIPWGIKQAGFTTGMCVIILMGLLTLYCCYRVVKSRTMMFSLDTTSWEYPDVCRHYFGSFGQWSSLLFSLVSLIGAMIVYWVLMSNFLFNTGKFIFNFIHHINDTDTILSTNNSNPVICPSAGSGGHPDNSSMIFYANDTGAQQFEKWWDKSRTVPFYLVGLLLPLLNFKSPSFFSKFNILGTVSVLYLIFLVTFKAVRLGFHLEFHWFIPTEFFVPEIRFQFPQLTGVLTLAFFIHNCIITLLKNNKKQENNVRDLCIAYMLVTLTYLYIGVLVFASFPSPPLSKDCIEQNFLDNFPSSDTLSFIARIFLLFQMMTVYPLLGYLARVQLLGHIFGDIYPSIFHVLILNLIIVGAGVIMACFYPNIGGIIRYSGAACGLAFVFIYPSLIYIISLHQEERLTWPKLIFHVFIIILGVANLIVQFFM
binds: all assays above
